Laboratory results published in PubChem BioAssay AID1508600 (Functional Genomics Laboratory (NCATS/FGL), 2020).
In all, about 53,000 sequences went through this assay and about 3,700 (7%) were called active.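 How the source made its calls: active means gene knockdowns whose robust z-score for IL-1 alpha signal is at least 2 or at most -2, so actives lie on both sides; inactive means the rest.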 This is one part of the list.

Assay: Components of the Cytosolic LPS Sensing Pathway: Gene Identification via Genome-wide siRNA Screen;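 further: robust z of the log signal after scaling to non-targeting control siRNA wells of the plate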
Conditions: RAW264.7 macrophages, IL-1a HTRF, actives lie on both sides, screened at 100 nM (by protocol), cells primed 5 h with Pam3CSK4 first
Outline: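 Cells (RAW264.7, 1×10^4 per well) were transfected with siRNA at 100 nM and cultured 48h at 37 degrees C. Pam3CSK4 was added for 5 hours; LipidA transfection followed for 24 hour. IL-1a was then measured by HTRF.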

Row | Sequence | z-score
1 | GGCCUUUGGGACAUGUGUGTT against Olfr552 | active: -2.05
2 | GGUAAGCUAGGUUGCCCACTT against Gabarapl1 | inactive: 1.91
3 | CGGGACACUUGAAUUGGCUTT against Frmd4a | active: -2.25
4 | GCUGCUUAAGUACAUCAGATT against Grm4 | inactive: -0.401
5 | GGCUAUUGUGGAGAAGAUCTT against Cblif | active: -2.07
6 | CCGCCAACACCUUUGUUUUTT against Cyp1b1 | inactive: 1.31
7 | GGCAAAGAUGAUGGAAAAATT against Srp68 | inactive: 0.307
8 | GACGGUGGGACUCACUGUUTT against Olfr544 | inactive: -1.28
9 | GCACCCAACCCAAAAACACTT against 5730596B20Rik | inactive: -1.08
10 | GGAGAGAGUCAGAAAGAAGTT against Fbxo28 | inactive: -0.411
11 | GCCGCUGUCCUACAAGUUATT against Lmo1 | inactive: -1.49
12 | GUUGCUAAUAUCCUGUCUGTT against Olfr115 | inactive: 0.492
13 | GCUUAUGAGAUGAGUGAAUTT against Ccdc43 | inactive: -0.209
14 | GGUUCAUCGUUUUUAAUAGTT against Emb | inactive: -0.868
15 | GGCAAUCACGUGACAUUUCTT against Stk31 | inactive: 0.512
16 | GGUGUCAUGAUGAACACAGTT against Slc22a12 | inactive: 0.311
17 | GGCUCUUGAAAAAAACCCATT against Utp11 | inactive: 0.441
18 | CUCCUCAGUCAACAAGAACTT against Hoxc11 | inactive: 0.176
19 | GGUUAAACUUGGUGAAUUATT against Kcnj16 | inactive: 0.901
20 | GGCAACAGCCAUCUAAACGTT against Cdkn2d | inactive: 0.439
21 | CGUUCUACCAAUCAUUAAUTT against Mrpl49 | inactive: -0.73
22 | CGAGGUACAUCCCAAGCAATT against Twf2 | inactive: 0.532
23 | GGUCUCAAUCAGAGUUACATT against Zfp324 | inactive: -0.936
24 | CGCUGCUGUAUAAGCCCAUTT against Prkab2 | inactive: -0.463
25 | GUGUUCUAUGGAUCCUCUCTT against Fpr-rs4 | inactive: 1.05
26 | CGUAGCCGAGAAGACCCUATT against Shh | inactive: 0.0734
27 | GGUGGUGCAUCCUAAGAAATT against Gp1bb | inactive: 0.28
28 | GGUAAACGGCUUUUCUUAUTT against Ube2q2 | inactive: 0.618
29 | GGCAAUAAUCUUAGAGGUUTT against 9530068E07Rik | inactive: 0.499

Some of the entries above in a different format:
Row	Sequence	z-score
3	CGGGACACUUGAAUUGGCUTT against Frmd4a	active: -2.25
25	GUGUUCUAUGGAUCCUCUCTT against Fpr-rs4	inactive: 1.05
